Protein sequences, listed by entry. Tags and fused reporters are not part of them.
UniProt P16370: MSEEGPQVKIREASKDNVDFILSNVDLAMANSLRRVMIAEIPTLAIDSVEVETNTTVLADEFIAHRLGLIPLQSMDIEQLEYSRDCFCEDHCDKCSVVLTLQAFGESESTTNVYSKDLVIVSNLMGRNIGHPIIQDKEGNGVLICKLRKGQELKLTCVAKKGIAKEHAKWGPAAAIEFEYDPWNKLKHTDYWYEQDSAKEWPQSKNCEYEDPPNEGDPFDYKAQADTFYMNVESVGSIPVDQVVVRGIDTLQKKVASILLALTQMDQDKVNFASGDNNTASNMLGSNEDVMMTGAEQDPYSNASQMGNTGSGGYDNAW

According to paper PMC8511950:

Biological target: Rpb3 with C-terminal BioTAP tag (S. cerevisiae) (UniProt P16370)
Test: affinity purification with mass spectrometry; BioTAP-XL two-step purification of Rpb3-BioTAP (IgG beads, then streptavidin agarose) from 1% formaldehyde-cross-linked wildtype and spt6-1004 cells shifted to 37 °C for 80 min; on-bead trypsin digestion, TMT labelling, MS3 quantification; untagged wildtype and spt6-1004 cells as controls; FDR cutoff 0.05

Row | binding | Binder
1 | binds | Spt6 (protein, UniProt P23615 1-1451) MEETGDSKLVPRDEEEIVNDNDETKAPSEEEEGEDVFDSSEEDEDIDEDEDEARKVQEGFIVNDDDENEDPGTSISKKRRKHKRREREEDDRLSEDDLDLLMENAGVERTKASSSSGKFKRLKRVGDEGNAAESESDNVAASRQDSTSKLEDFFSEDEEEEESGLRNGRNNEYGRDEEDHENRNRTADKGGILDELDDFIEDDEFSDEDDETRQRRIQEKKLLREQSIKQPTQITGLSSDKIDEMYDIFGDGHDYDWALEIENEELENGNDNNEAEEEEIDEETGAIKSTKKKISLQDIYDLEDLKKNLMTEGDMKIRKTDIPERYQELRAGITDYGNMSSEDQELERNWIAEKISVDKNFDANYDLTEFKEAIGNAIKFITKENLEVPFIYAYRRNYISSREKDGFLLTEDDLWDIVSLDIEFHSLVNKKDYVQRFYAELHIDDPIVTEYFKNQNTASIAELNSLQDIYDYLEFKYANEINEMFINHTGKTGKKHLKNSSYEKFKASPLYQAVSDIGISAEDVGENISSQHQIHPPVDHPSSKPVEVIESILNANSGDLQVFTSNTKLAIDTVQKYYSLELSKNTKIREKVRSDFSKYYLADVVLTAKGKKEIQKGSLYEDIKYAINRTPMHFRRDPDVFLKMVEAESLNLLSVKLHMSSQAQYIEHLFQIALETTNTSDIAIEWNNFRKLAFNQAMDKIFQDISQEVKDNLTKNCQKLVAKTVRHKFMTKLDQAPFIPNVRDPKIPKILSLTCGQGRFGADAIIAVYVNRKGDFIRDYKIVDNPFDKTNPEKFEDTLDNIIQSCQPNAIGINGPNPKTQKFYKRLQEVLHKKQIVDSRGHTIPIIYVEDEVAIRYQNSERAAQEFPNKPPLVKYCIALARYMHSPLLEYANLTSEEVRSLSIHPHQNLLSSEQLSWALETAFVDIVNLVSVEVNKATDNNYYASALKYISGFGKRKAIDFLQSLQRLNEPLLARQQLITHNILHKTIFMNSAGFLYISWNEKRQKYEDLEHDQLDSTRIHPEDYHLATKVAADALEYDPDTIAEKEEQGTMSEFIELLREDPDRRAKLESLNLESYAEELEKNTGLRKLNNLNTIVLELLDGFEELRNDFHPLQGDEIFQSLTGESEKTFFKGSIIPVRVERFWHNDIICTTNSEVECVVNAQRHAGAQLRRPANEIYEIGKTYPAKVIYIDYANITAEVSLLDHDVKQQYVPISYSKDPSIWDLKQELEDAEEERKLMMAEARAKRTHRVINHPYYFPFNGRQAEDYLRSKERGEFVIRQSSRGDDHLVITWKLDKDLFQHIDIQELEKENPLALGKVLIVDNQKYNDLDQIIVEYLQNKVRLLNEMTSSEKFKSGTKKDVVKFIEDYSRVNPNKSVYYFSLNHDNPGWFYLMFKINANSKLYTWNVKLTNTGYFLVNYNYPSVIQLCNGFKTLLKSNSSKNRMNNYR
2 | binds | Hpm1 (protein, UniProt P40481 1-377) MSFSFGFTSNDFDDDELVAQPETFVESSKENENTTAYINPLDSDFLSQAGVVQPNVEDLGTILESLKDVRLTFEEFQSPIYRKPLIKRELFDVKHQLMLETDAQSNNNSTELDILLGDTSEDLRKNIYEGGLKSWECSYDLVDLLSENVDRISNDIDAVVEIGCGTALPSEFLFRSALLRNDRSKGLKFVLTDYNASVLRLVTIPNLVITWAKTVLTKEQWYALQKDECEDIPINNEELLLTSKLLAAFYDDVQSRNISVTLISGSWGRKFSNLIHEVLSGSQKVLSLSSETIYQPDNLPVIAETILDIHNLPQTDVKTYVAAKDIYFGVGGSITEFEAYLDDKINSEHLPIHSERFKVNSGLKRSIICIETNKAIR
3 | binds | Erg27 (protein, UniProt Q12452 1-347) MNRKVAIVTGTNSNLGLNIVFRLIETEDTNVRLTIVVTSRTLPRVQEVINQIKDFYNKSGRVEDLEIDFDYLLVDFTNMVSVLNAYYDINKKYRAINYLFVNAAQGIFDGIDWIGAVKEVFTNPLEAVTNPTYKIQLVGVKSKDDMGLIFQANVFGPYYFISKILPQLTRGKAYIVWISSIMSDPKYLSLNDIELLKTNASYEGSKRLVDLLHLATYKDLKKLGINQYVVQPGIFTSHSFSEYLNFFTYFGMLCLFYLARLLGSPWHNIDGYKAANAPVYVTRLANPNFEKQDVKYGSATSRDGMPYIKTQEIDPTGMSDVFAYIQKKKLEWDEKLKDQIVETRTPI
4 | binds | Gbp2 (protein, UniProt P25555 1-427) MERELGMYGNDRSRSRSPVRRRLSDDRDRYDDYNDSSSNNGNGSRRQRRDRGSRFNDRYDQSYGGSRYHDDRNWPPRRGGRGRGGSRSFRGGRGGGRGRTLGPIVERDLERQFDATKRNFENSIFVRNLTFDCTPEDLKELFGTVGEVVEADIITSKGHHRGMGTVEFTKNESVQDAISKFDGALFMDRKLMVRQDNPPPEAAKEFSKKATREEIDNGFEVFIINLPYSMNWQSLKDMFKECGHVLRADVELDFNGFSRGFGSVIYPTEDEMIRAIDTFNGMEVEGRVLEVREGRFNKRKNNDRYNQRREDLEDTRGTEPGLAQDAAVHIDETAAKFTEGVNPGGDRNCFIYCSNLPFSTARSDLFDLFGPIGKINNAELKPQENGQPTGVAVVEYENLVDADFCIQKLNNYNYGGCSLQISYARRD
5 | binds | Sub2 (protein, UniProt Q07478 1-446) MSHEGEEDLLEYSDNEQEIQIDASKAAEAGETGAATSATEGDNNNNTAAGDKKGSYVGIHSTGFKDFLLKPELSRAIIDCGFEHPSEVQQHTIPQSIHGTDVLCQAKSGLGKTAVFVLSTLQQLDPVPGEVAVVVICNARELAYQIRNEYLRFSKYMPDVKTAVFYGGTPISKDAELLKNKDTAPHIVVATPGRLKALVREKYIDLSHVKNFVIDECDKVLEELDMRRDVQEIFRATPRDKQVMMFSATLSQEIRPICRRFLQNPLEIFVDDEAKLTLHGLQQYYIKLEEREKNRKLAQLLDDLEFNQVIIFVKSTTRANELTKLLNASNFPAITVHGHMKQEERIARYKAFKDFEKRICVSTDVFGRGIDIERINLAINYDLTNEADQYLHRVGRAGRFGTKGLAISFVSSKEDEEVLAKIQERFDVKIAEFPEEGIDPSTYLNN
6 | binds | Hrp1 (protein, UniProt Q99383 1-534) MSSDEEDFNDIYGDDKPTTTEEVKKEEEQNKAGSGTSQLDQLAALQALSSSLNKLNNPNSNNSSSNNSNQDTSSSKQDGTANDKEGSNEDTKNEKKQESATSANANANASSAGPSGLPWEQLQQTMSQFQQPSSQSPPQQQVTQTKEERSKADLSKESCKMFIGGLNWDTTEDNLREYFGKYGTVTDLKIMKDPATGRSRGFGFLSFEKPSSVDEVVKTQHILDGKVIDPKRAIPRDEQDKTGKIFVGGIGPDVRPKEFEEFFSQWGTIIDAQLMLDKDTGQSRGFGFVTYDSADAVDRVCQNKFIDFKDRKIEIKRAEPRHMQQKSSNNGGNNGGNNMNRRGGNFGNQGDFNQMYQNPMMGGYNPMMNPQAMTDYYQKMQEYYQQMQKQTGMDYTQMYQQQMQQMAMMMPGFAMPPNAMTLNQPQQDSNATQGSPAPSDSDNNKSNDVQTIGNTSNTDSGSPPLNLPNGPKGPSQYNDDHNSGYGYNRDRGDRDRNDRDRDYNHRSGGNHRRNGRGGRGGYNRRNNGYHPYNR
7 | binds | Nog1 (protein, UniProt Q02892 1-647) MQLSWKDIPTVAPANDLLDIVLNRTQRKTPTVIRPGFKITRIRAFYMRKVKYTGEGFVEKFEDILKGFPNINDVHPFHRDLMDTLYEKNHYKISLAAISRAKSLVEQVARDYVRLLKFGQSLFQCKQLKRAALGRMATIVKKLRDPLAYLEQVRQHIGRLPSIDPNTRTLLICGYPNVGKSSFLRCITKSDVDVQPYAFTTKSLYVGHFDYKYLRFQAIDTPGILDRPTEEMNNIEMQSIYAIAHLRSCVLYFMDLSEQCGFTIEAQVKLFHSIKPLFANKSVMVVINKTDIIRPEDLDEERAQLLESVKEVPGVEIMTSSCQLEENVMEVRNKACEKLLASRIENKLKSQSRINNVLNKIHVAQPQARDDVKRTPFIPESVKNLKKYDPEDPNRRKLARDIEAENGGAGVFNVNLKDKYLLEDDEWKNDIMPEILDGKNVYDFLDPEIAAKLQALEEEEEKLENEGFYNSDDEEEIYDGFEASEVDDIKEKAAWIRNRQKTMIAEARNRKSLKNKAIMPRSKLTKSFGKMEEHMSTLGHDMSALQDKQNRAARKNRYVERGSDVVFGDQDALTASTENGVKLRQTDRLLDGVADGSMRSKADRMAKMERRERNRHAKQGESDRHNAVSLSKHLFSGKRGVGKTDFR
8 | binds | Nug1 (protein, UniProt P40010 1-520) MRVRKRQSRRTSTKLKEGIKKKASAHRKKEKKMAKKDVTWRSRSKKDPGIPSNFPYKAKILEEIEAKKMKDLEERELAKQQRLEARKAAKEQGVDAMDEDMIEDDENGLAALVESAQQAAAEYEGTPSNDADVRDDELDVIDYNIDFYGEDVEGESELEKSRKAYDKIFKSVIDASDVILYVLDARDPESTRSRKVEEAVLQSQGKRLILILNKVDLIPPHVLEQWLNYLKSSFPTIPLRASSGAVNGTSFNRKLSQTTTASALLESLKTYSNNSNLKRSIVVGVIGYPNVGKSSVINALLARRGGQSKACPVGNEAGVTTSLREIKIDNKLKILDSPGICFPSENKKRSKVEHEAELALLNALPAKHIVDPYPAVLMLVKRLAKSDEMTESFKKLYEIPPIPANDADTFTKHFLIHVARKRGRLGKGGIPNLASAGLSVLNDWRDGKILGWVLPNTSAAASQQDKQNLSTINTGTKQAPIAANESTIVSEWSKEFDLDGLFSSLDKAIDASKDQDTMME
9 | binds | Erb1 (protein, UniProt Q04660 1-807) MMAKNNKTTEAKMSKKRAASEESDVEEDEDKLLSVDGLIDAEASESDEDDDEYESAVEEKESSSDKEAQDDSDDDSDAELNKLLAEEEGDGEEDYDSSEFSDDTTSLTDRLSGVKLQTIVDPNIYSKYADGSDRIIKPEINPVYDSDDSDAETQNTIGNIPLSAYDEMPHIGYDINGKRIMRPAKGSALDQLLDSIELPEGWTGLLDKNSGSSLNLTKEELELISKIQRNEQTDDSINPYEPLIDWFTRHEEVMPLTAVPEPKRRFVPSKNEAKRVMKIVRAIREGRIIPPKKLKEMKEKEKIENYQYDLWGDSTETNDHVMHLRAPKLPPPTNEESYNPPEEYLLSPEEKEAWENTEYSERERNFIPQKYSALRKVPGYGESIRERFERSLDLYLAPRVRKNKLNIDPNSLIPELPSPKDLRPFPIRCSTIYAGHKGKVRTLSIDPSGLWLATGSDDGTVRVWEILTGREVYRTTLIDDEENPDYHIECIEWNPDANNGILAVAVGENIHLIVPPIFGYDIENNGKTKIEDGFGYDTFGTVKKSNLEVNENGDGDEDGENESAKNAVKKQVAQWNKPSQKQLEKDICITISCKKTVKKLSWHRKGDYFVTVQPDSGNTSVLIHQVSKHLTQSPFKKSKGIIMDAKFHPFKPQLFVCSQRYVRIYDLSQQILVKKLLPGARWLSKIDIHPRGDNLIASSFDKRVLWHDLDLASTPYKTLRYHEKAVRSVNFHKKLPLFSSAADDGTIHVFHATVYDDMMKNPMIVPLKKLTGHKVINSLGVLDAIWHPREAWLFSAGADNTARLWTT
10 | binds | Nop6 (protein, UniProt Q07623 1-225) MGSEEDKKLTKKQLKAQQFRKSKEEKDQEKDVKKEQAPEGKRPNSAAGNDGEEPVKKKRKTRRGRGGKGKNGKKGNRFIVFVGSLPRDITAVELQNHFKNSSPDQIRLRADKGIAFLEFDADKDRTGIQRRMDIALLQHGTLLKEKKINVELTVGGGGNSQERLEKLKNKNIKLDEERKERLTKMINDGNQKKIAKTTATAAQTSGTDNKPVPAGIHPDRAKLLK

No constants are given. Whether binding was seen depends on the method and setting. Binding seen in cells or lysates may run through a third protein. These calls come from enrichment with a bait or labelling near it, and not all partners need be listed.
